Results reported in doi:10.1101/2024.05.08.593233.
Results are given in words; binding and its absence hold for the method and conditions named. Binding seen in cells or lysates may run through a third protein. Some results given as binding are weak or reduced against the parent protein; the word gives no strength. Where a sequence is shown, tags or fusion partners need not be part of it.

Key:
Test in all cases: co-IP
[1] = target: T1, Rubicon (509–972) (human) (UniProt Q92622)
T1 sequence: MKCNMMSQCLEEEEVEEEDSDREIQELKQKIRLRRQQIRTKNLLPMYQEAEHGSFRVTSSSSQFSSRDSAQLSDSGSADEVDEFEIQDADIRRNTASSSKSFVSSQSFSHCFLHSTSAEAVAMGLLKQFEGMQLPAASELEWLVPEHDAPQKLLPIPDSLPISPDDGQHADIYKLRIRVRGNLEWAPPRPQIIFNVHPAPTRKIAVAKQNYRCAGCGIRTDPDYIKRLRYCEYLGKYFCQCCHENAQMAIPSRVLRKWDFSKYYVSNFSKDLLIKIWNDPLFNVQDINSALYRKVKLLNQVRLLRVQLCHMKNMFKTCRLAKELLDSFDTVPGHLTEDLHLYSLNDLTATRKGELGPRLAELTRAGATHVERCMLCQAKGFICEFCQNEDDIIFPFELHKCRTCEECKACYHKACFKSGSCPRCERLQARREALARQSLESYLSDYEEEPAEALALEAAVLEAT

[2] = target: T2, 3×FLAG-Rubicon (1–504, 558–972) (human) (UniProt Q92622)
T2 sequence: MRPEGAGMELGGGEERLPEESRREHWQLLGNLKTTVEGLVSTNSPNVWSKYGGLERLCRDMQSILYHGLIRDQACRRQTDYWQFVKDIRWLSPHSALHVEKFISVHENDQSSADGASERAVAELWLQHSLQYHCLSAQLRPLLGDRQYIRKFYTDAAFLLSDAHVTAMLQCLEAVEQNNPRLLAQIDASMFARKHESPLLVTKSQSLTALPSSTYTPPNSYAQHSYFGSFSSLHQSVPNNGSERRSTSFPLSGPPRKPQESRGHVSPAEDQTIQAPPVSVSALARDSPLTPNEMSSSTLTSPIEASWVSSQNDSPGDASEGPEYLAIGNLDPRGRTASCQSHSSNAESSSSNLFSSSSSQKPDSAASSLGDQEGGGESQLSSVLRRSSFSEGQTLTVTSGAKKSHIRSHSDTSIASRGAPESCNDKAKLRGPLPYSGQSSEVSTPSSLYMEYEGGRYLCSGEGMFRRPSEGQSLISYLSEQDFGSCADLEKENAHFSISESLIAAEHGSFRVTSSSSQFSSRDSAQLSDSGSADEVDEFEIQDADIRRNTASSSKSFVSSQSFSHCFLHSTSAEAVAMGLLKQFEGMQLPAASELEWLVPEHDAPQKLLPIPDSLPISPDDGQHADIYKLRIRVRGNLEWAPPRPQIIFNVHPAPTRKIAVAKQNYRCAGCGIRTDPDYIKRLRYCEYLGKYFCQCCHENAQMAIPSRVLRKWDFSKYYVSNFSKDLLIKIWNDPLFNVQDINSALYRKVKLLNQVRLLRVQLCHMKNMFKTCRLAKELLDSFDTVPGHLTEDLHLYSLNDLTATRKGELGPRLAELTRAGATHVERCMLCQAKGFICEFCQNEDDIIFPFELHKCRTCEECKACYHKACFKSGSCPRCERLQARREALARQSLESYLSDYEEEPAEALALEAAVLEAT

[3] = target: T3, 3×FLAG-Rubicon (1–698) (human) (UniProt Q92622)
T3 sequence: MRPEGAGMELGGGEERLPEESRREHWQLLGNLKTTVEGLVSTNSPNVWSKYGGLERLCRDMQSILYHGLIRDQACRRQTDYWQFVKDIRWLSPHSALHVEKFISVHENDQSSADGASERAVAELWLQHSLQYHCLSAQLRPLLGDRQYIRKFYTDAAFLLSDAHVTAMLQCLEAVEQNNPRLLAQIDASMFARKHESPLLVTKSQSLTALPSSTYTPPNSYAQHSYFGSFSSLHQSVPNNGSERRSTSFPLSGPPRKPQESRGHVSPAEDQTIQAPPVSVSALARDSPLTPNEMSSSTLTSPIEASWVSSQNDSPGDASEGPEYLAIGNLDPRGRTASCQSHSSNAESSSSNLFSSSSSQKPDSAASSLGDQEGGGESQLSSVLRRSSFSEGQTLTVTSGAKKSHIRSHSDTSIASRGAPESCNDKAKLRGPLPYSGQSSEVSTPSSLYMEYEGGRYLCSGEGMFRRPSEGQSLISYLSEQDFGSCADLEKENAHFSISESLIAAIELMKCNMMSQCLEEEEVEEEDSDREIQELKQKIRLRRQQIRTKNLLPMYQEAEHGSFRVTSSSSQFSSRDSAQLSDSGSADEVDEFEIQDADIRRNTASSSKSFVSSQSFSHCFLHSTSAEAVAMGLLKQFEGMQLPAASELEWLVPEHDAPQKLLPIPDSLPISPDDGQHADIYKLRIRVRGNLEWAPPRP

Measured: binding

B1: endogenous WIPI2 (HEK293T) (protein, UniProt Q9Y4P8 1-454)
chain: MNLASQSGEAGAGQLLFANFNQDNTEVKGASRAAGLGRRAVVWSLAVGSKSGYKFFSLSSVDKLEQIYECTDTEDVCIVERLFSSSLVAIVSLKAPRKLKVCHFKKGTEICNYSYSNTILAVKLNRQRLIVCLEESLYIHNIRDMKVLHTIRETPPNPAGLCALSINNDNCYLAYPGSATIGEVQVFDTINLRAANMIPAHDSPLAALAFDASGTKLATASEKGTVIRVFSIPEGQKLFEFRRGVKRCVSICSLAFSMDGMFLSASSNTETVHIFKLETVKEKPPEEPTTWTGYFGKVLMASTSYLPSQVTEMFNQGRAFATVRLPFCGHKNICSLATIQKIPRLLVGAADGYLYMYNLDPQEGGECALMKQHRLDGSLETTNEILDSASHDCPLVTQTYGAAAGKGTYVPSSPTRLAYTDDLGAVGGACLEDEASALRLDEDSEHPPMILRTD
binds: [1] | [2] | [3]

B2: HA-WIPI2d (protein, UniProt Q9Y4P8-2 1-425)
chain: MNLASQSGEAGAGQLLFANFNQDNTSLAVGSKSGYKFFSLSSVDKLEQIYECTDTEDVCIVERLFSSSLVAIVSLKAPRKLKVCHFKKGTEICNYSYSNTILAVKLNRQRLIVCLEESLYIHNIRDMKVLHTIRETPPNPAGLCALSINNDNCYLAYPGSATIGEVQVFDTINLRAANMIPAHDSPLAALAFDASGTKLATASEKGTVIRVFSIPEGQKLFEFRRGVKRCVSICSLAFSMDGMFLSASSNTETVHIFKLETVKEKPPEEPTTWTGYFGKVLMASTSYLPSQVTEMFNQGRAFATVRLPFCGHKNICSLATIQKIPRLLVGAADGYLYMYNLDPQEGGECALMKQHRLDGSLETTNEILDSASHDCPLVTQTYGAAAGKAYTDDLGAVGGACLEDEASALRLDEDSEHPPMILRTD
binds: [1] | [2] | [3]
